Data as given in article PMC6601512.

T1: TOFU-6::GFP::HA (C. elegans) (UniProt Q09293)
T1 sequence: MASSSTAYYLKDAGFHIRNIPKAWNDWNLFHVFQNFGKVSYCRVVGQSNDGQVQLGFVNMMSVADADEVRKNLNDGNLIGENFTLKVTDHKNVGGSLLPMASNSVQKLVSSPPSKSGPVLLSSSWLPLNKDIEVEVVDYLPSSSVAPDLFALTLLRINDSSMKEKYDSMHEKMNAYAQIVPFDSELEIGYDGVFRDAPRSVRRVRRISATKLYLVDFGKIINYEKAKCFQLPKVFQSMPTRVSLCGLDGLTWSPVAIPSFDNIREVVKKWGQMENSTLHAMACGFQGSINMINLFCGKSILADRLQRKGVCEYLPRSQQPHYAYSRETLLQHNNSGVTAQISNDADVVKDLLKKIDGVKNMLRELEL

T2: PID-1 (piRNA-induced silencing-defective 1) (C. elegans (endogenous in nongravid adult worms)), Q19541
T2 chain: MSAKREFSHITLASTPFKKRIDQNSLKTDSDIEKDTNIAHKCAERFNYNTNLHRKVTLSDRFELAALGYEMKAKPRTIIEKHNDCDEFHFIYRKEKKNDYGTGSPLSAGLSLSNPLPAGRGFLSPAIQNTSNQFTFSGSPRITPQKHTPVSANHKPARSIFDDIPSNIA

T3: 3xFlag::mCherry::IFE-3 (C. elegans) (UniProt O61955)
T3 sequence: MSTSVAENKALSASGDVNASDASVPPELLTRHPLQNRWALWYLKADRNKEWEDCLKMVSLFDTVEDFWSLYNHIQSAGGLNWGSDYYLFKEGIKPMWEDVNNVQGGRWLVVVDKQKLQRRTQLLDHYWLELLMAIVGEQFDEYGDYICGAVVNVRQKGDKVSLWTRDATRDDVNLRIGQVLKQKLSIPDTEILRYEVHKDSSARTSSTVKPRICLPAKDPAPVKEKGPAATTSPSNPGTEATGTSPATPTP

T4: ERH-2::GFP::OLLAS (C. elegans) (UniProt Q20057)
T4 sequence: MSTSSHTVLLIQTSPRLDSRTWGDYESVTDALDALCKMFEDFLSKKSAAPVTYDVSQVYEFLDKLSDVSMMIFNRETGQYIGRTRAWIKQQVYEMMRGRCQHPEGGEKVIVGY

T5: PID-3::mCherry::Myc (C. elegans) (UniProt O76616)
T5 sequence: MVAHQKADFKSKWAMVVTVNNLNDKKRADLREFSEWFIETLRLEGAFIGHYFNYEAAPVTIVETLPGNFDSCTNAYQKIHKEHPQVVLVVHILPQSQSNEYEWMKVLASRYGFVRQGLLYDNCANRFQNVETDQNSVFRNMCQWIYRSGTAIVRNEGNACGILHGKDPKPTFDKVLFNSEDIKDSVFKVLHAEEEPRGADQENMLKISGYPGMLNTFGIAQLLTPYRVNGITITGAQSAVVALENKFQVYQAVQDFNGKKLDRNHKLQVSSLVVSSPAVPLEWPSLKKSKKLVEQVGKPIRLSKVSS

T6: PID-1 (piRNA-induced silencing-defective 1) (C. elegans (endogenous in nongravid adult worms)) (UniProt Q19541)
T6 sequence: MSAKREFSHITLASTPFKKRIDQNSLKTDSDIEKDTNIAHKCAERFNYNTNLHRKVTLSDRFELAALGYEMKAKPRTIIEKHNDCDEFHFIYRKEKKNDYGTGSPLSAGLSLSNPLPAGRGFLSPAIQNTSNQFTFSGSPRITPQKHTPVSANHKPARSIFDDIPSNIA


What was measured:
[1] = target: T1, TOFU-6::GFP::HA (C. elegans); experiment: affinity purification with mass spectrometry; RFP-Trap (mCherry) or GFP-Trap immunoprecipitation of tagged transgenic proteins from nongravid adult worm extracts, 2 h at 4°C, 150 mM NaCl, pH 7.5; nontransgenic wild type as control; PID-3 also with RNase treatment and in the absence of PID-1
[2] = target: T2, PID-1 (piRNA-induced …); experiment: affinity purification with mass spectrometry; immunoprecipitation with PID-1-specific antibodies from nongravid adult worm extracts, label-free quantification, quadruplicates; pid-1 loss-of-function strains as control; conditions: remark: other sources report otherwise
[3] = target: T3, 3xFlag::mCherry::IFE-3 (C. elegans); experiment: affinity purification with mass spectrometry; RFP-Trap (mCherry) or GFP-Trap immunoprecipitation of tagged transgenic proteins from nongravid adult worm extracts, 2 h at 4°C, 150 mM NaCl, pH 7.5; nontransgenic wild type as control; PID-3 also with RNase treatment and in the absence of PID-1
[4] = target: T4, ERH-2::GFP::OLLAS (C. elegans); experiment: as above
[5] = target: T5, PID-3::mCherry::Myc (C. elegans); experiment: as above
[6] = target: T6, PID-1 (piRNA-induced silencing-defective 1) (C. elegans (endogenous in nongravid adult worms)); experiment: affinity purification with mass spectrometry; immunoprecipitation with PID-1-specific antibodies from nongravid adult worm extracts, label-free quantification, quadruplicates; pid-1 loss-of-function strains as control

Row | Binder | binding [1] | binding [3] | binding [4] | binding [5] | further results
1 | IFE-3 (protein, UniProt O61955 1-251) MSTSVAENKALSASGDVNASDASVPPELLTRHPLQNRWALWYLKADRNKEWEDCLKMVSLFDTVEDFWSLYNHIQSAGGLNWGSDYYLFKEGIKPMWEDVNNVQGGRWLVVVDKQKLQRRTQLLDHYWLELLMAIVGEQFDEYGDYICGAVVNVRQKGDKVSLWTRDATRDDVNLRIGQVLKQKLSIPDTEILRYEVHKDSSARTSSTVKPRICLPAKDPAPVKEKGPAATTSPSNPGTEATGTSPATPTP | binds |  |  |  | 
2 | ERH-1, Q22640 1-103 (protein) MSHTILLLQPTDNIESRSWSDYENTTECLEGICRVYEEYLKKKVPAQNEITYDISHLFEFIDDLKDLSMLVLDNTTYTYVPHNKQYVKESIYKLMNNRLNNQH |  |  |  |  | binding [2]: no binding
3 | ERH-1 (protein, UniProt Q22640 1-103) MSHTILLLQPTDNIESRSWSDYENTTECLEGICRVYEEYLKKKVPAQNEITYDISHLFEFIDDLKDLSMLVLDNTTYTYVPHNKQYVKESIYKLMNNRLNNQH | no binding | no binding | no binding | no binding | 
4 | ERH-2 (protein, UniProt Q20057 1-113) MSTSSHTVLLIQTSPRLDSRTWGDYESVTDALDALCKMFEDFLSKKSAAPVTYDVSQVYEFLDKLSDVSMMIFNRETGQYIGRTRAWIKQQVYEMMRGRCQHPEGGEKVIVGY |  |  |  | binds | binding [6]: binds
5 | IFE-1 (protein, UniProt O45551 1-212) MTETEQTTAPIYPLKRNWTWWYLNDERNKSWEDRLKKVYTFNTVSEFWALYDAIRPPSGLNALCDYNVFRDDIQPMWEVPENSNGGRWLIVIDKGKTPEMVDAIWLEILMALVGEQFGKDMESICGLVCNVRGKGSKISVWTKDCNDDETNMRIGVVLKEKLMAASKDHSKPLFDVIRYEDHESCQKKTSSVVKAKLSLHSSDAPVAEKSAV | binds | binds |  | binds | 

The next lines start with results.

Row | binding [1] | binding [3] | binding [4] | binding [5] | Binder | further results
6 |  | binds |  |  | TOFU-6 (protein, UniProt Q09293 1-367) MASSSTAYYLKDAGFHIRNIPKAWNDWNLFHVFQNFGKVSYCRVVGQSNDGQVQLGFVNMMSVADADEVRKNLNDGNLIGENFTLKVTDHKNVGGSLLPMASNSVQKLVSSPPSKSGPVLLSSSWLPLNKDIEVEVVDYLPSSSVAPDLFALTLLRINDSSMKEKYDSMHEKMNAYAQIVPFDSELEIGYDGVFRDAPRSVRRVRRISATKLYLVDFGKIINYEKAKCFQLPKVFQSMPTRVSLCGLDGLTWSPVAIPSFDNIREVVKKWGQMENSTLHAMACGFQGSINMINLFCGKSILADRLQRKGVCEYLPRSQQPHYAYSRETLLQHNNSGVTAQISNDADVVKDLLKKIDGVKNMLRELEL | 
7 |  |  | binds |  | PID-3 (protein, UniProt O76616 1-307) MVAHQKADFKSKWAMVVTVNNLNDKKRADLREFSEWFIETLRLEGAFIGHYFNYEAAPVTIVETLPGNFDSCTNAYQKIHKEHPQVVLVVHILPQSQSNEYEWMKVLASRYGFVRQGLLYDNCANRFQNVETDQNSVFRNMCQWIYRSGTAIVRNEGNACGILHGKDPKPTFDKVLFNSEDIKDSVFKVLHAEEEPRGADQENMLKISGYPGMLNTFGIAQLLTPYRVNGITITGAQSAVVALENKFQVYQAVQDFNGKKLDRNHKLQVSSLVVSSPAVPLEWPSLKKSKKLVEQVGKPIRLSKVSS | 
8 |  |  | binds |  | TOST-1 (twenty-one U pathway antagonist) (protein, UniProt Q18490 1-142) MTTAIQYQVIPLADREHSNKVASILENKYKTATNKRITLNERFGVLEKGYTIQATEPETVKNDSDVFFVVHDRNLNSKKEFVENYLAKNPIVNSPEKVFEEEDKENAPTKKAVLKPSSTDEKKLTSSDIYIQEITRSILQSV | binding [6]: no binding

No constants are given. Whether binding was seen depends on the method and setting. Binding seen in cells or lysates may run through a third protein. These calls come from enrichment with a bait or labelling near it, and not all partners need be listed. A no says only that the protein was not detected with the bait. For part of these data: Tags and fused reporters may be left off the sequences shown.
